Measured values: article PMC8831623
No constants are given. Whether binding was seen depends on the method and setting. Binding seen in cells or lysates may run through a third protein. Some entries that bind do so weakly or less than the wild type.

Amino acid sequences for entries named in this document (tags omitted). A change or cut given only in a name is not applied to a line headed by its entry.
UniProt Q15424: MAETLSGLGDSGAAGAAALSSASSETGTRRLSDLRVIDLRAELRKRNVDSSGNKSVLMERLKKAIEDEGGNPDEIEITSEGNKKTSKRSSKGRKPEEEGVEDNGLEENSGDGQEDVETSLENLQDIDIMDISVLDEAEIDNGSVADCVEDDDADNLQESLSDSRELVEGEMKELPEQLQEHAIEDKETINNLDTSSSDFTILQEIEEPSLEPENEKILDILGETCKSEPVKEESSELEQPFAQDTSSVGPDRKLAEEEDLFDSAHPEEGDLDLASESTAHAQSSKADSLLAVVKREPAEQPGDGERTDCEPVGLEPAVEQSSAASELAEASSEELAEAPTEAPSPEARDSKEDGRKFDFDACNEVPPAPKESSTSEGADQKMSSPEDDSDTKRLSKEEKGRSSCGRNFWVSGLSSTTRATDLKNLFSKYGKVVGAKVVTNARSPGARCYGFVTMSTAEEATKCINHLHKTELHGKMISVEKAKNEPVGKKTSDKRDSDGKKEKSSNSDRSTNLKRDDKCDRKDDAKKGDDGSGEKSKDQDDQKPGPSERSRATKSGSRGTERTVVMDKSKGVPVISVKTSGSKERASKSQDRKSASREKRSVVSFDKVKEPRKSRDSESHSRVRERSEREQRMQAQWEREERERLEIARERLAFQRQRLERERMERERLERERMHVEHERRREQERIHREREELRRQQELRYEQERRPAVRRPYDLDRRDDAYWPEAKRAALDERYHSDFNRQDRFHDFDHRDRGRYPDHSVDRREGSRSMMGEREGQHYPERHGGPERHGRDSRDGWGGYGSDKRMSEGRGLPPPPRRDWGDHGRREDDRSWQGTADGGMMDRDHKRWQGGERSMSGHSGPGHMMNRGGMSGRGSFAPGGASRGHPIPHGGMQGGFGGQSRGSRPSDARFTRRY
UniProt Q9UH17: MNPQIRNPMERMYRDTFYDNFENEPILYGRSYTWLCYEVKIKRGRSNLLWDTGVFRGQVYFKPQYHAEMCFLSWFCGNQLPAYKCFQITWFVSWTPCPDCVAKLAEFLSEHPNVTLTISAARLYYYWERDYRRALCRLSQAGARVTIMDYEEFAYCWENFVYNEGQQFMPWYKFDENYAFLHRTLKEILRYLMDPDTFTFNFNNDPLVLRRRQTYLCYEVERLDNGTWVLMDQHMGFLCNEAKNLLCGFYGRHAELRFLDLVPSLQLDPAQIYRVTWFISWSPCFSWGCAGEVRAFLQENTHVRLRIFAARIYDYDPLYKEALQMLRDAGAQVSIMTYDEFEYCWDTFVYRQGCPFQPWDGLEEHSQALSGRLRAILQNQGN

Assays:
[1] = molecular target: SAFB of HEK293T cells (human (endogenous in HEK293T)) (UniProt Q15424); experiment: co-IP; nuclear extract of HEK293T cells transfected with A3B-FLAG, immunoprecipitated with anti-FLAG, anti-ILF2 or anti-SAFB antibody and Protein G beads at 4 °C, immunoblotting
[2] = molecular target: APOBEC3B with a 3×FLAG tag knocked in at the C-terminus of the endogenous gene (human (endogenous in AMO1 and RPMI8226)) (UniProt Q9UH17); experiment: co-sedimentation; density gradient sedimentation (4 to 36%) of whole cell extracts of AMO1-KI and RPMI8226-KI in GST lysis buffer, 25,000 rpm for 14 h, fractions immunoblotted; without RNase A
[3] = molecular target: APOBEC3B with a 3×FLAG tag knocked in at the C-terminus of the endogenous gene (human (endogenous in AMO1 and RPMI8226)) (UniProt Q9UH17); experiment: co-IP; ANTI-FLAG M2 Affinity Gel, myeloma cell lysates (AMO1-KI, RPMI8226-KI) in low salt RIPA buffer, 4 °C for 2 h, in the presence of RNase A, immunoblotting
[4] = molecular target: APOBEC3B with a 3×FLAG tag knocked in at the C-terminus of the endogenous gene (human (endogenous in AMO1 and RPMI8226)) (UniProt Q9UH17); experiment: co-sedimentation; density gradient sedimentation (4 to 36%) of whole cell extracts of AMO1-KI and RPMI8226-KI in GST lysis buffer, 25,000 rpm for 14 h, fractions immunoblotted; after RNase A treatment

A3B-FLAG (from UniProt Q9UH17 1-382) (enzyme)
binding [1]: binds

B1: SRSF7 (protein, UniProt Q16629 1-238)
chain: MSRYGRYGGETKVYVGNLGTGAGKGELERAFSYYGPLRTVWIARNPPGFAFVEFEDPRDAEDAVRGLDGKVICGSRVRVELSTGMPRRSRFDRPPARRPFDPNDRCYECGEKGHYAYDCHRYSRRRRSRSRSRSHSRSRGRRYSRSRSRSRGRRSRSASPRRSRSISLRRSRSASLRRSRSGSIKGSRYFQSPSRSRSRSRSISRPRSSRSKSRSPSPKRSRSPSGSPRRSASPERMD
binding [2]: binds | binding [3]: no binding (condition: with RNase A) | binding [4]: binds

B2: Matrin-3 (protein, UniProt P43243 1-847)
chain: MSKSFQQSSLSRDSQGHGRDLSAAGIGLLAAATQSLSMPASLGRMNQGTARLASLMNLGMSSSLNQQGAHSALSSASTSSHNLQSIFNIGSRGPLPLSSQHRGDADQASNILASFGLSARDLDELSRYPEDKITPENLPQILLQLKRRRTEEGPTLSYGRDGRSATREPPYRVPRDDWEEKRHFRRDSFDDRGPSLNPVLDYDHGSRSQESGYYDRMDYEDDRLRDGERCRDDSFFGETSHNYHKFDSEYERMGRGPGPLQERSLFEKKRGAPPSSNIEDFHGLLPKGYPHLCSICDLPVHSNKEWSQHINGASHSRRCQLLLEIYPEWNPDNDTGHTMGDPFMLQQSTNPAPGILGPPPPSFHLGGPAVGPRGNLGAGNGNLQGPRHMQKGRVETSRVVHIMDFQRGKNLRYQLLQLVEPFGVISNHLILNKINEAFIEMATTEDAQAAVDYYTTTPALVFGKPVRVHLSQKYKRIKKPEGKPDQKFDQKQELGRVIHLSNLPHSGYSDSAVLKLAEPYGKIKNYILMRMKSQAFIEMETREDAMAMVDHCLKKALWFQGRCVKVDLSEKYKKLVLRIPNRGIDLLKKDKSRKRSYSPDGKESPSDKKSKTDGSQKTESSTEGKEQEEKSGEDGEKDTKDDQTEQEPNMLLESEDELLVDEEEAAALLESGSSVGDETDLANLGDVASDGKKEPSDKAVKKDGSASAAAKKKLKKVDKIEELDQENEAALENGIKNEENTEPGAESSENADDPNKDTSENADGQSDENKDDYTIPDEYRIGPYQPNVPVGIDYVIPKTGFYCKLCSLFYTNEEVAKNTHCSSLPHYQKLKKFLNKLAEERRQKKET
binding [2]: binds | binding [3]: no binding (condition: with RNase A) | binding [4]: binds
